# Measured values as given in the supplement of paper PMC4635364.
# Counter-ions that a name gives are not always drawn. This is one part of the list. Repeats in this data set agree poorly, so a single value says little.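 Human fetal ventral-midbrain neural progenitor line ReNCell VM, differentiated without mitogens. Images stained for doublecortin (early neurons) or tyrosine hydroxylase (dopaminergic neurons) were scored by blinded raters against untreated wells (0 = no change). Repeats and both raters were averaged, and compounds averaging 2 or higher were picked as hits for retesting.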
# Test system: ReNCell VM
# Test: neuronal differentiation score (DCX+ cell fraction vs untreated, manual image score) (score (-3 to 3)); higher = more neuronal differentiation
# Conditions: library: LOPAC; 2 uM; 2 weeks
row,Compound,neuronal differentiation score
1,"Ic1ccccc1CNC1C2CCN(CC2)C1C(c1ccccc1)c1ccccc1 [L-703,606 oxalate]",inactive: 0
2,N#CC(C#N)=Cc1ccc([N+](=O)[O-])c(O)c1 [Tyrphostin AG 126],inactive: 0
3,CCNC(=O)[C@H]1O[C@@H](n2cnc3c(N)ncnc32)[C@H](O)[C@@H]1O [5'-N-Ethylcarboxamidoadenosine],inactive: -3
4,C=C(C)[C@@H]1[C@H]2OC(=O)[C@@H]1[C@]1(O)C[C@H]3OC34C(=O)O[C@H]2[C@@]41C.CC(C)(O)[C@@H]1[C@H]2OC(=O)[C@@H]1[C@]1(O)C[C@H]3OC34C(=O)O[C@H]2[C@@]41C (some centres not stated) [Picrotoxin],inactive: 0
5,O=C1CCCN1CC#CCN1CCCC1 [Oxotremorine sesquifumarate salt],inactive: 0
6,CC(C)C[C@H]1C(=O)N2CCC[C@H]2[C@]2(O)O[C@](NC(=O)[C@@H]3C=C4c5cccc6[nH]c(Br)c(c56)C[C@H]4N(C)C3)(C(C)C)C(=O)N12 [(+)-Bromocriptine methanesulfonate],inactive: 0
7,CC(C)N(CCC(C(N)=O)(c1ccccc1)c1ccccn1)C(C)C (configuration not stated) [Disopyramide phosphate],inactive: 0
8,NCCc1ccc(O)cc1 [4-Hydroxyphenethylamine hydrochloride],inactive: 0
9,CC(C)C1CNC(C(=O)O)C1CC(=O)O (configuration not stated) [Dihydrokainic acid],inactive: 0
10,CCn1cnc2c(Nc3cccc(Cl)c3)nc(N[C@@H]3CCCC[C@@H]3N)nc21,inactive: 0
11,"CCc1c(C(=O)OC)ncc2[nH]c3cc(OC)c(OC)cc3c12 [Methyl 6,7-dimethoxy-4-ethyl-beta-carboline-3-carboxylate]",inactive: 1
12,NC(N)=NOCC[C@H](N)C(=O)O [L-Canavanine sulfate],inactive: -1
13,O=C1CC[C@@]2(O)[C@H]3Cc4ccc(O)c5c4[C@@]2(CCN3CC2CC2)[C@H]1O5 [Naltrexone hydrochloride],inactive: 0

# Arranged by count of non-hydrogen atoms (smallest number first): part of the list above.
row,Compound,neuronal differentiation score
8,NCCc1ccc(O)cc1 [4-Hydroxyphenethylamine hydrochloride],inactive: 0
5,O=C1CCCN1CC#CCN1CCCC1 [Oxotremorine sesquifumarate salt],inactive: 0
13,O=C1CC[C@@]2(O)[C@H]3Cc4ccc(O)c5c4[C@@]2(CCN3CC2CC2)[C@H]1O5 [Naltrexone hydrochloride],inactive: 0
6,CC(C)C[C@H]1C(=O)N2CCC[C@H]2[C@]2(O)O[C@](NC(=O)[C@@H]3C=C4c5cccc6[nH]c(Br)c(c56)C[C@H]4N(C)C3)(C(C)C)C(=O)N12 [(+)-Bromocriptine methanesulfonate],inactive: 0

# Same assay, conditions: library: Phytochemical; 2 uM; 2 weeks
row,Compound,neuronal differentiation score
1,COC(=O)C1=CO[C@@H](C)[C@@H]2CN3CC[C@@]4(C(=O)Nc5cc(OC)ccc54)[C@H]3C[C@H]12,inactive: 0
2,COc1cc2c(c(OC)c1OC)-c1ccc(O)c(=O)cc1[C@@H](N)CC2 [Trimethylcolchicinic acid],inactive: 0
3,CN1CCc2cc3c(cc2C1O)OCO3 (configuration not stated) [Hydrastinine hydrochloride],inactive: 0
4,O=C1CCC[C@@H]2[C@H]3CCCN4CCC[C@@H](CN12)[C@@H]34 [Matrine],inactive: 0
